This is an account of results in PMC10394004.

Chains of the proteins cited; added tags and fusions are not shown. Lines headed by an entry give the natural chain unless they say otherwise; changes in a name come on top.
UniProt Q7JRM2: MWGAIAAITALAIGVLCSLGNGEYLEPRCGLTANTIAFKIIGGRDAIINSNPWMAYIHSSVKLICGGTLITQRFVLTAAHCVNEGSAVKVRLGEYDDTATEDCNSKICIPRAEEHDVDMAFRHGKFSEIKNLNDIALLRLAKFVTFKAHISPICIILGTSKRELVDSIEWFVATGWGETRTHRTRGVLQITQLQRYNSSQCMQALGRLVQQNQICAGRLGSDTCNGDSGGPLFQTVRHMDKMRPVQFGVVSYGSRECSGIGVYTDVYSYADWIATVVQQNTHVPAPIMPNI

Results are given in words; binding and its absence hold for the method and conditions named. Binding seen in cells or lysates may run through a third protein. Binding calls can cover weak binding; strength is not graded here. Tags and fused reporters may be left off the sequences shown.

Experiment [1] concerns the target T1, DIAP1-EGFP (Drosophila inhibitor of apoptosis protein 1 fused with EGFP) (Drosophila) (UniProt Q24306).
T1 sequence: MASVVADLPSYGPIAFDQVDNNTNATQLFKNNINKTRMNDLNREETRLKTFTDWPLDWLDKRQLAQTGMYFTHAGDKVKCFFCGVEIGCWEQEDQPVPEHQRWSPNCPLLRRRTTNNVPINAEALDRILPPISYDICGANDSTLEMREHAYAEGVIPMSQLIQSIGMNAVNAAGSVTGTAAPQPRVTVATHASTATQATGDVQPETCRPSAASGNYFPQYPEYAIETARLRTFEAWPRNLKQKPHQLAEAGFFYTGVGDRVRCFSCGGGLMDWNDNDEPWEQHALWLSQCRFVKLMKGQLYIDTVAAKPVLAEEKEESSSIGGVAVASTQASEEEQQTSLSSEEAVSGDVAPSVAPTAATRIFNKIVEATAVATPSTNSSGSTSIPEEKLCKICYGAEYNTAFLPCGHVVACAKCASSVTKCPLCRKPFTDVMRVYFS
Put plainly: co-IP; Drosophila S2 cells co-expressing the EGFP bait and HA-tagged Erasp; lysis in 50 mM Tris-HCl pH 8.0, 150 mM NaCl, 1% NP40, 1 mM DTT; precipitation with anti-EGFP antibody and protein A agarose; Erasp detected by its HA epitope.

For the next experiment, the target named is T2, GST-DIAP1 (Drosophila) (UniProt Q24306).
T2 sequence: T1 sequence
Kind of experiment: pull-down; GST fusion proteins on GSH-Sepharose beads incubated with lysate of cells expressing HA-tagged Erasp (50 mM Tris-HCl pH 8.0, 150 mM NaCl, 1% Triton X-100, 0.1% SDS, 0.5% sodium deoxycholate) for 4 h at 4 °C; anti-HA immunoblot; only the target purified. (Immunoblotting shows a protein as a band on a membrane.)

Take “HA-tagged Erasp (ER stress-associated serine protease, CG30090) (from UniProt Q7JRM2) (enzyme)”: the binding result (in experiment [1]; with GST-DIAP1 (Drosophila)) was “binds” throughout.
